Assay results reported in patent US10654927B2, “Signalling system” (UCL BUSINESS PLC, priority 2014, dated 2020).
For at least one compound, name, drawing or mass did not settle the structure.

Assays:
SupT1.CD19 cells [1] = experiment: Interferon-gamma release (ELISA) from transduced primary human T-cells challenged with SupT1.CD19 cells; type: cell-based; conditions: TetCAR T-cells challenged 1:1 with SupT1.CD19, 48 hours
SupT1.CD19 cells [2] = experiment: Chromium release assay, killing of target cells; type: cell-based; conditions: 4 hours, 51Cr release

CN(C)[C@@H]1C(O)=C(C(N)=O)C(=O)[C@@]2(O)C(O)=C3C(=O)c4c(O)cccc4[C@@](C)(O)[C@H]3C[C@@H]12 [tetracycline]
effect of Tetracycline on TetCAR T-cell activation (Interferon-gamma) (SupT1.CD19 cells [1]): activation was inhibited | effect of tetracycline on lysis of target cells by Tet-CAR T-cells (SupT1.CD19 cells [2]): only in the absence of Tetracycline
